Reference: PMC11696086

What follows are sequences tested on His-OBP3 (Arabidopsis thaliana) (assay: EMSA). Settings: EMSA: 1 ug poly(dI:dC), 0.5 ug protein, 10 fmol biotin-dsDNA, room temperature 20 min, run in 0.5x TBE pH 8.3; binding buffer not stated; recombinant protein; protein details: His; label: biotin.
“ACCATGAGAATTAGATAACAATTAATCA (double strand) [bHLH101-k]”: binds. “TAGAAAAGTTAATAACAAAGCAAATAA (double strand) [bHLH038-c]”: binds. “GCTATTTTGATTTGTTATAATTCAAG (double strand) [bHLH100-g]”: binds.

The exact form of at least one protein or probe is not confirmed.
